The other results are listed elsewhere or left out. These are raw signals, not scaled to a control.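 Primary screen: polymyxin B was added at a level permeabilizing Salmonella outer membranes while sparing inner membranes. DMSO wells, both with and without polymyxin B, established maximum growth. Plate-to-plate variation meant each plate was ranked on its own, and the lowest-OD600 compounds were selected as hits.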

The test has as its system Salmonella enterica serovar Typhimurium SL1344. Briefly: bacterial growth OD600 after 18 h with compound and polymyxin B; higher = more bacterial growth (less inhibition). The conditions noted are these: 50 µM, Mueller-Hinton broth.

For the compound `Cc1ncoc1C(=O)N1CCCCC1C(=O)Nc1ccc(Oc2ccccc2F)cc1` (stereo unspecified), the “bacterial growth OD600” value (polymyxin B 1 µg/mL) was determined as 0.749.

Turning to `COc1cc(CC2(CCC(=O)N(C)Cc3ccc4nsnc4c3)CCC(=O)N2)ccc1F` (stereo unspecified), the “bacterial growth OD600” value (polymyxin B 0.75 µg/mL) came to 0.798.

On to `COc1ccc(NC2CCCN(C(=O)c3cccc(C(F)(F)F)c3)C2)cc1OC` (stereo unspecified), for which the “bacterial growth OD600” value (polymyxin B 1 µg/mL) amounted to 1.03.

Turning to `COc1cccc(-c2ccc(NC(=O)C3CCCN(Cc4nccs4)C3)cc2)c1` (stereo unspecified), the “bacterial growth OD600” value (polymyxin B 1 µg/mL) came to 0.876.

As for `COc1ccc(CN2CCC(n3nccc3NC(=O)c3cccc(F)c3)CC2)c(F)c1`, the “bacterial growth OD600” value (polymyxin B 0.75 µg/mL) came out at 0.487.

Turning to `O=C1OCCCN1CCNc1ccc(-c2nc(Cc3ccccc3)no2)cn1`, the “bacterial growth OD600” value (polymyxin B 0.75 µg/mL) came out at 0.828.

Take `CC(C)c1noc(-c2ccc(N3CCN(Cc4ccccn4)CC3)nc2)n1`: under “polymyxin B 1 µg/mL”, the “bacterial growth OD600” value came to 0.991.

Turning to `COc1cc(F)ccc1CN1CCC(C2CCN(Cc3cccnc3)CC2)C1` (stereo unspecified), the “bacterial growth OD600” value (polymyxin B 0.75 µg/mL) came out at 0.981.

On to `O=C(CCCc1ccccc1)Nc1ccnn1C1CCN(C(=O)C2CC2)CC1`, for which the “bacterial growth OD600” value (polymyxin B 0.75 µg/mL) was found to be 0.789.

On to `COc1ccc(N2C(=O)CN(C(=O)c3nc(C)c[nH]3)CC2(C)C)cc1`, for which the “bacterial growth OD600” value (polymyxin B 0.75 µg/mL) stood at 0.886.

`CCOC(=O)N1CCN(C(=O)CN2Cc3cc(Cl)ccc3OC(C)C2)CC1` (stereo unspecified): the “bacterial growth OD600” value (polymyxin B 0.75 µg/mL) came to 1.03.

With `O=C(c1cccnc1)N1CCCC(CCc2cccc(F)c2)C1` (stereo unspecified), the “bacterial growth OD600” value (polymyxin B 0.75 µg/mL) is 0.06.

Regarding `CCCN1CCC(NC(C)c2cnc(-c3ccncc3)nc2C)CC1` (stereo unspecified), the “bacterial growth OD600” value (polymyxin B 1 µg/mL) was 0.987.

As for `CN(Cc1cccc2cnccc12)C(=O)c1cc(COc2cccc(F)c2)[nH]n1`, under “polymyxin B 1 µg/mL”, the “bacterial growth OD600” value turned out to be 0.911.

Consider `CCOC(=O)C1(CCCc2ccccc2)CCCN(C(=O)c2cc(C)nc(N)n2)C1` (stereo unspecified), for which the “bacterial growth OD600” value (polymyxin B 1 µg/mL) turned out to be 1.18.

Turning to `CCCN(CC1CC1)C(=O)CC1(c2ccc(-c3ccccc3)cc2)CC(=O)N(C2CC2)C1=O` (stereo unspecified), the “bacterial growth OD600” value (polymyxin B 0.75 µg/mL) came out at 0.041.

As to `O=C(NCC1CCCN(C(=O)c2cccc3nccnc23)C1)c1ccccc1Cl` (stereo unspecified), where the note is “polymyxin B 1 µg/mL”, the “bacterial growth OD600” value was 0.891.

As to `COc1ccccc1NC(=O)Nc1ccnn1C1CCN(Cc2ccccn2)CC1`, the “bacterial growth OD600” value (polymyxin B 0.75 µg/mL) is 0.819.

For `Cc1nn(-c2ccc(F)cc2)c(C)c1CN1CC[C@@H](N2CCC(O)CC2)[C@H](O)C1`, the “bacterial growth OD600” value (polymyxin B 1 µg/mL) amounted to 1.22.

`Cc1ccccc1-c1cnnc(NCC[C@@H]2C[C@@H]3C=C[C@H]2C3)n1`: the “bacterial growth OD600” value (polymyxin B 0.75 µg/mL) was determined as 0.4.

With `COc1cc(CN2CCN(CC3CCCCC3)CC2CCO)cc(OC)c1` (stereo unspecified), under “polymyxin B 1 µg/mL”, the “bacterial growth OD600” value came to 0.757.

Values taken from the supplement of paper PMC12889115.
